This is one part of the list.
Test system: T1, CTL2-GFP (C. trachomatis L2/434/Bu, GFP-expressing)
T1 construct: L2/434/Bu, GFP-expressing
Design: species or system HeLa; Intracellular C. trachomatis growth in HeLa cells, bulk GFP fluorescence relative to DMSO
Conditions: bulk GFP, single well; 28.5 h, 10 µM; inhibitor

SMILES	% of control remaining [%]
COc1ccc(C(CNC(=O)Cn2c(-c3cccc(C)c3)n[nH]c2=S)N2CCOCC2)cc1OC (stereo not shown) [CBK297900]	176.765
Cc1c(C(=O)N2CCC(n3cncn3)CC2)sc2cccc(F)c12 [CBK305520]	156.837
COc1ccccc1C(=O)N1CCN(c2nc3c(s2)c(C)nn3C)CC1 [CBK306836]	151.158
COc1ccc2oc(-c3ccccc3)c(C(=O)Nc3nccs3)c2c1 [CBK287767]	104.423
CCOC(=O)c1cccc(-c2ccc(OC)c(OC)c2)n1 [CBK149247]	115.206
CCc1ccccc1Nc1nnc(SC(C)C(=O)N2CCCC2)s1 (stereo not shown) [CBK295197]	158.399
O=C(CN1CCN(S(=O)(=O)c2ccc(F)cc2)CC1)Nc1cccc(C(F)(F)F)c1 [CBK071925]	109.153
COc1ccc(/C=C(\C)C(=O)Nc2c(OC)cc(F)cc2OC2CCNCC2)cc1OC [CBK050353T]	104.892
Cc1nnc(Sc2nc3ccccc3nc2N2CCCC2)s1 [CBK093751]	100
COC(=O)CN1C(=O)S/C(=C/c2ccc(OCc3cccc(C(=O)O)c3)c(Cl)c2)C1=O [CBK265262]	117.696
NCCCc1c(-c2ccc(Cl)cc2Cl)[nH][nH]c1=O [CBK288367]	129.843
Cc1cc(C)nc(N2CCC(C(=O)NCc3ccc(Cl)cc3)CC2)n1 [CBK136319]	118.763
CCCc1c(O)nc(SCC(=O)NCc2ccco2)[nH]c1=O [CBK073278]	113.476
COc1cc(-c2cncc(NC(C)CCCC(C)(C)O)n2)cc(OC)c1OC (stereo not shown) [CBK065481]	161.332
CCc1c(C(=O)NCCn2ccnc2C)[nH]c2ccc(F)cc12 [CBK283314]	110.797
CC1=NN(c2ccccc2)C(=O)C1C(=O)c1ccc(Br)cc1 (stereo not shown) [CBK067771]	111.928
Cc1ccc(CS(=O)(=O)N(C)C2CCN(C)C(C)C2)c(F)c1 (stereo not shown) [CBK305484]	147.944
CCCc1nn(CC(=O)NC2CCC2)c(=O)c2cc3ccsc3n12 [CBK284194]	88.4279
CC(=O)Nc1ccc(N2C(=O)CC(N3CCN(Cc4ccc5c(c4)OCO5)CC3)C2=O)cc1 (stereo not shown) [CBK265217]	165.151
CS(=O)(=O)c1nc2cccnc2s1 [CBK017260]	84.9572
COc1ccc(N2C(=O)c3ccccc3NC2c2cccc(OCC(=O)Nc3ccccc3)c2)cc1 (stereo not shown) [CBK265406]	85.2038
CCn1c(=O)n(CC(=O)NC2CCCCC2)c2cccnc21 [CBK283810]	147.804

2 of the compounds above, in markdown:

| SMILES | % of control remaining [%] |
| --- | --- |
| CCc1c(C(=O)NCCn2ccnc2C)[nH]c2ccc(F)cc12 [CBK283314] | 110.797 |
| CC1=NN(c2ccccc2)C(=O)C1C(=O)c1ccc(Br)cc1 (stereo not shown) [CBK067771] | 111.928 |

— publication PMC12040169 (PLOS Biology, 2025)
